Results as given in publication PMC4578135.
No constants are given. Whether binding was seen depends on the method and setting. In cells and extracts the contact can be indirect. Some binding calls cover weakened binding; strength is not graded here.

Target: HTLV-1 Tax protein (HTLV-1) (UniProt P03409)
Experiment: co-IP + pull-down; immunoprecipitation and Ni-NTA pulldown assays; cells, tags and which protein was held not stated

B1: endogenous Cep63 (protein, UniProt Q96MT8 1-703)
chain: MEALLEGIQNRGHGGGFLTSCEAELQELMKQIDIMVAHKKSEWEGRTHALETCLKIREQELKSLRSQLDVTHKEVGMLHQQVEEHEKIKQEMTMEYKQELKKLHEELCILKRSYEKLQKKQMREFRGNTKNHREDRSEIERLTAKIEEFRQKSLDWEKQRLIYQQQVSSLEAQRKALAEQSEIIQAQLVNRKQKLESVELSSQSEIQHLSSKLERANDTICANELEIERLTMRVNDLVGTSMTVLQEQQQKEEKLRESEKLLEALQEEKRELKAALQSQENLIHEARIQKEKLQEKVKATNTQHAVEAIRPREESLAEKKYTSQGQGDLDSVLSQLNFTHTSEDLLQAEVTCLEGSLESVSATCKQLSQELMEKYEELKRMEAHNNEYKAEIKKLKEQILQGEQSYSSALEGMKMEISHLTQELHQRDITIASTKGSSSDMEKRLRAEMQKAEDKAVEHKEILDQLESLKLENRHLSEMVMKLELGLHEAKEISLADLQENYIEALNKLVSENQQLQKDLMNTKSQLEISTQMCKKQNDRIFKPTHSRTTEFKNTEFKPTHGQHRHDGIKTEHYKTDLHSPRGQASDSINPMSRVLSPLSPQISPCSSTRSLTSYSLCKTHSLPSALDTNEANFSDTMSESMNDQEEFISSCSLPVSPLGSIATRFLEEEELRSHHILERLDAHIEELKRESEKTVRQFTALK
In the case of B1, the binding is reported as “binds”.

B2: ectopically expressed Cep63 (protein, UniProt Q96MT8 1-703)
chain: B1 chain
In the case of B2, the binding is reported as “binds”.
